The source of these data is article PMC6925144, “A prospective compound screening contest identified broader inhibitors for Sirtuin 1” (Scientific Reports, 2019).

Protein sequences, listed by entry. Tags and fused reporters are not part of them. Residues count along the entry.
UniProt Q96EB6, 2-747 limits assumed: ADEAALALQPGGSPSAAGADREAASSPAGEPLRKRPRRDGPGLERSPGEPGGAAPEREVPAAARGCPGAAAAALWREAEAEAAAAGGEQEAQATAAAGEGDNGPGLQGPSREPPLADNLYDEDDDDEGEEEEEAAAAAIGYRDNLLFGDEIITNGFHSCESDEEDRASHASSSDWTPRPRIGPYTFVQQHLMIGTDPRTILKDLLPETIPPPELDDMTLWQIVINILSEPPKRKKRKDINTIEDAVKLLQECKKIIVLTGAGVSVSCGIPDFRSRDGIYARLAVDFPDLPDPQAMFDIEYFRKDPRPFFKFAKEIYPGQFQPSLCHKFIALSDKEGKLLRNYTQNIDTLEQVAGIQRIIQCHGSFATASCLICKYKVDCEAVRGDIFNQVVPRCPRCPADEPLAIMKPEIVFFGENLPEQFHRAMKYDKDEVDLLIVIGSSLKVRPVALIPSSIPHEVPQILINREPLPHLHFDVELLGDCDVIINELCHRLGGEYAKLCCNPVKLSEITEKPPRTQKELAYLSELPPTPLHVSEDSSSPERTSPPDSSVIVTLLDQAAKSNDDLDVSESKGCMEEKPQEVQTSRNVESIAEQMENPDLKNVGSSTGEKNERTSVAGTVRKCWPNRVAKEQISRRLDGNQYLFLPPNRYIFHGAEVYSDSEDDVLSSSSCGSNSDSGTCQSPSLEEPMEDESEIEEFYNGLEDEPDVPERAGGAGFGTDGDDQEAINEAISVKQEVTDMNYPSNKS

The full ranking holds about 3,200 compounds; the median of “TSA(without NAD+) / Primary screening (TSA) / delta Tm (K)” is about -0.07, and the highest 2% start at about 0.37. The list shows a part of the results.

The target in this assay is NAD-dependent deacetylase Sirtuin 1 (human, UniProt Q96EB6). The assay is described as follows: primary screen, delta tm. Also noted: single well (n = 1). To be noted: 10 µM. In a few lines:
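Thermal shift of Sirtuin 1 measured without NAD+, compound at 10 µM (n = 1); value is ΔTm, with hits defined as ΔTm > 0.45 K or < −1.5 K. Hits retested at 5, 10, 20 µM (n = 4) and counterscreened on bovine carbonic anhydrase and ABL1 SH2 domain.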
Take `CCN(CC)C1CCN(C(=O)Nc2cc(-n3cnnn3)ccc2F)C1` (stereo not drawn): the “TSA(without NAD+) / Primary screening (TSA) / delta Tm (K)” value is reported as -0.12 K.
The result for `CCc1c(C)c(C#N)c2nc3ccccc3n2c1Cl` reads -0.08 K.
The same measure for `Cc1nn2c(nc(N3CCN(C4CCS(=O)(=O)C4)CC3)c3ccccc32)c1Cl` (stereo not drawn): 0.27 K.
Consider `O=C(CCc1ccccc1)Nc1ccccc1Cc1ccccc1`, for which the “TSA(without NAD+) / Primary screening (TSA) / delta Tm (K)” value is listed as -0.12 K.
Turning to `CC(C)N(CC(N)=O)Cc1sc2ccccc2c1Cl`, the “TSA(without NAD+) / Primary screening (TSA) / delta Tm (K)” value is listed as -0.43 K.
The result for `COc1ccc(NC(=O)CSCC(=O)Nc2cccc(C)c2)cc1OCc1cn2ccccc2n1` reads -0.07 K; that for `O=c1[nH]c2ccc(CNCc3ccsc3)cc2[nH]1`, -0.28 K; that for `O=C(O)c1nc(Nc2ccc(Cl)cc2)c2ccccc2n1`, -0.15 K.
The result for `Cc1oc2nc[nH]c(=O)c2c1C(=O)NCc1ccc(OCc2ccccc2)cc1` reads -0.12 K; that for `c1ccc(-c2nnc(CSc3nnc(-c4cccs4)n3C3CC3)o2)cc1`, 0.02 K.
The same measure for `O=C(CCc1c[nH]c2ccccc12)NCCc1ccco1`: -0.05 K; for `O=c1[nH]c(CSc2cc(Cl)ccc2Cl)nc2ccsc12`: 0.02 K; for `O=C(NN/C=C1/C(=O)N(c2cccc(C(F)(F)F)c2)C(=O)c2ccccc21)c1cccc(S(=O)(=O)Nc2ccccc2Cl)c1`: 1.45 K.
For the compound `O=C(CNc1cnc2ccccc2n1)N1CCCc2ccccc21`, the “TSA(without NAD+) / Primary screening (TSA) / delta Tm (K)” value is reported as -0.03 K.
Turning to `CC(=O)Nc1ccc(NCc2cc(=O)oc3c(C)c(O)ccc23)cc1Cl`, the “TSA(without NAD+) / Primary screening (TSA) / delta Tm (K)” value stood at 0.02 K.
The result for `O=C(OCc1cc(=O)n2ccccc2n1)c1ccccc1C(F)(F)F` reads -0.18 K; that for `OCC[C@@H](Nc1cncc(Cl)n1)c1ccccc1`, -0.12 K; that for `NC(=O)c1cccc(NC(=O)c2nn(Cc3ccccc3)c(=O)c3ccccc23)c1`, -0.03 K.
In the case of `COc1ccc(Br)cc1/C=C1/Cc2ccccc2C1=O`, the “TSA(without NAD+) / Primary screening (TSA) / delta Tm (K)” value is listed as -0.08 K.
The same measure for `O=C(C1=C(O)C(=O)N(CCCN2CCOCC2)C1c1cccc([N+](=O)[O-])c1)c1ccc(F)cc1` (stereo not drawn): -0.11 K.
The result for `CCN(C(=O)COC(=O)CN1C(=O)NC2(CCCc3ccccc32)C1=O)c1nc2ccccc2s1` (stereo not drawn) reads -0.12 K; that for `C=CCN(C(=O)CSc1nnc(-c2ccccc2)o1)c1nc(-c2ccccc2)cs1`, 0.13 K.
For `COc1cc(C)ccc1Oc1ccc(NC(=O)Cc2c(C)nc(-c3ccccn3)[nH]c2=O)cn1`, the “TSA(without NAD+) / Primary screening (TSA) / delta Tm (K)” value came to 0.29 K.
In the case of `Cn1ncc2c(=O)cc[nH]c21`, the “TSA(without NAD+) / Primary screening (TSA) / delta Tm (K)” value was -0.13 K.
The same measure for `COc1ccc2[nH]cc(C3CCN(C(=O)c4coc(C)c4)CC3)c2c1`: -0.03 K; for `O=C(COC(=O)c1ccc2c(c1)S(=O)(=O)c1ccccc1C2=O)Nc1ncc(Cl)cc1Cl`: 0.02 K.
The same measure for `CC1(NC(=O)CSc2nnc(NCCc3cccs3)s2)CCS(=O)(=O)C1` (stereo not drawn): -0.03 K.
`Cc1cc(F)ccc1N1CCCC(Nc2ccc3nnnn3n2)C1` (stereo not drawn): the “TSA(without NAD+) / Primary screening (TSA) / delta Tm (K)” value amounted to 0.63 K.
The result for `Cc1ccc(F)c(/N=C/c2ccccc2O)c1` reads 0.08 K.
Regarding `CC(OC(=O)C1CCCN1C(=O)C12CC3CC(CC(C3)C1)C2)C(=O)c1c[nH]c2ccccc12` (stereo not drawn), the “TSA(without NAD+) / Primary screening (TSA) / delta Tm (K)” value is -0.02 K.
The same measure for `CC(NC(=O)COC(=O)c1ccc(NS(=O)(=O)c2ccc3c(c2)OCCO3)cc1)C12CC3CC(CC(C3)C1)C2` (stereo not drawn): 0.26 K.
The result for `Cc1ccc(N(Cc2ccccc2)C(=O)N(C)Cc2cnccn2)cc1` reads 0.02 K.
The same measure for `CC(=O)Nc1ccc(NC(=O)c2cccc(C(N)=O)c2)cc1C`: -0.07 K; for `c1ccc(-c2c3c(nc4sc5c(c24)CCCC5)-c2ccccc2CC3)cc1`: -0.03 K; for `COc1ccc(Br)cc1/C=C1/COc2ccccc2C1=O`: -0.03 K.
For `O=c1cc(NCc2ccccc2Cn2cccn2)nc2ccccn12`, the “TSA(without NAD+) / Primary screening (TSA) / delta Tm (K)” value is 0.12 K.
The result for `CC(OC(=O)C1=COCCO1)C(=O)Nc1ccc(N2CCOCC2)cc1` (stereo not drawn) reads -0.02 K.
The result for `C=CCOc1cccc(C2C(C(=O)c3ccc(OC)cc3)=C(O)C(=O)N2CCCN2CCOCC2)c1` (stereo not drawn) reads 0.15 K; that for `O=C(CCCc1nc2ccccc2s1)Nc1cccc(S(=O)(=O)NCc2ccco2)c1`, -0.18 K.
The same measure for `O=C(Nc1cccc(S(=O)(=O)N2CCOCC2)c1)c1ccccc1OCc1ccccc1`: 0.08 K; for `Cn1c(=O)[nH]c(=O)c2c1nc(N1CCC(C(N)=O)CC1)n2CCSc1nc2ccccc2s1`: 0.02 K; for `CCC(CC)C(O)CN` (stereo not drawn): -0.08 K.
For `O=C(O)CN1C(=O)COc2ccccc21`, the “TSA(without NAD+) / Primary screening (TSA) / delta Tm (K)” value is listed as 0.02 K.
The same measure for `Cc1cc(C)n(-c2cccc(N3CC(C(=O)O)CC3=O)c2)n1` (stereo not drawn): -0.03 K; for `O=C(NCCn1cnc2ccccc21)c1ccc(N2CCCCC2=O)cc1`: -0.08 K.
Turning to `CC(C)N(Cc1ccccc1)C(=O)COC(=O)/C=C/c1ccc(S(=O)(=O)N2CCCCCC2)cc1`, the “TSA(without NAD+) / Primary screening (TSA) / delta Tm (K)” value was -0.08 K.
Regarding `O=C1NC(=O)C(=Cc2cn(-c3ccccc3)nc2-c2cc3ccccc3o2)C(=O)N1`, the “TSA(without NAD+) / Primary screening (TSA) / delta Tm (K)” value is reported as -0.08 K.
The same measure for `CC(OC(=O)/C=C/c1ccc2c(c1)OCO2)C(=O)Nc1cccc([N+](=O)[O-])c1` (stereo not drawn): -0.13 K; for `O=C(O)CC[C@@H](O)C(=O)O`: -0.03 K.
The result for `NC(=S)c1ccc(C(=O)N2CCCC(C(=O)NC3CC3)C2)cc1` (stereo not drawn) reads -0.03 K; that for `O=C(NC(c1ccccc1)c1ccc2nc(C(F)(F)F)[nH]c2c1)C1=COCCO1` (stereo not drawn), -0.11 K.
The same measure for `Cn1c(SCCCC(=O)c2ccccc2)nc2ccsc2c1=O`: -0.17 K; for `CNC(=O)CCN(C)c1cccc(F)c1C#N`: -0.11 K.
`COc1ccc(C(=O)C2=C(O)C(=O)N(CCCN3CCOCC3)C2c2ccncc2)cc1OC` (stereo not drawn): the “TSA(without NAD+) / Primary screening (TSA) / delta Tm (K)” value was -0.15 K.
Consider `O=S(=O)(c1ccc(C(F)(F)F)cc1)N1CCNCC1`, for which the “TSA(without NAD+) / Primary screening (TSA) / delta Tm (K)” value is -0.12 K.
The same measure for `CCOC(=O)c1sc2nc(CSc3nncn3-c3ccccc3)[nH]c(=O)c2c1C`: -0.04 K; for `COc1ccc(C=C2C(=O)NC(=S)NC2=O)cc1OC`: 0.07 K.
The same measure for `Cc1ccc(N(C)S(=O)(=O)c2cccc(C(=O)NCCCn3cnc4ccccc43)c2)cc1`: -0.02 K; for `COc1cc(C=C(C(=O)NCC2CCCO2)C(=O)NCC2CCCO2)ccc1OCC(=O)Nc1ccc(C)cc1` (stereo not drawn): -0.08 K; for `COc1cc(OC)c(OC)cc1C=C1C(=O)NC(=S)NC1=O`: -0.22 K.
The same measure for `CC1CCc2c(sc3ncnc(N4CCC(C(N)=O)CC4)c23)C1` (stereo not drawn): 0.19 K; for `CC1CCc2c(sc3ncnc(OCC(=O)N4CCc5ccccc54)c23)C1` (stereo not drawn): 0.12 K.
Consider `COc1ccccc1SCc1cc(=O)n2ccccc2n1`, for which the “TSA(without NAD+) / Primary screening (TSA) / delta Tm (K)” value is on record as -0.22 K.
The result for `CN(C)S(=O)(=O)c1cccc(NC(=S)NNc2ccnc3cc(Cl)ccc23)c1` reads -0.18 K.
With `Cc1cccc(C(C)(C)CNC(=O)c2ccc3c(c2)NC(=O)CCN3C)c1`, the “TSA(without NAD+) / Primary screening (TSA) / delta Tm (K)” value is recorded as -0.08 K.
The same measure for `Cn1cc(S(=O)(=O)Nc2ccc3c(c2)CCCN3Cc2ccccc2)cc1C(N)=O`: -0.02 K; for `c1ccc2c(c1)oc1c(N3CCC(n4ccnn4)CC3)ncnc12`: -0.23 K; for `CCCOc1ccc(C(=O)C2=C(O)C(=O)N(CCN3CCOCC3)C2c2ccc(OC)cc2)cc1` (stereo not drawn): 0.02 K.
As for `Cc1ccc2[nH]c3c(c2c1)CCCC3=O`, the “TSA(without NAD+) / Primary screening (TSA) / delta Tm (K)” value is recorded as -0.15 K.
The result for `Cc1c(C(=O)NC2CCCCCC2)oc2c1ccc1ccccc12` reads -0.21 K.
As for `COc1ccc(N2CC(=O)C(c3n(C)c4ccccc4[n+]3C)=C2N)cc1`, the “TSA(without NAD+) / Primary screening (TSA) / delta Tm (K)” value is -0.02 K.
For the compound `O=C(O)/C=C/c1nc2ccccc2s1`, the “TSA(without NAD+) / Primary screening (TSA) / delta Tm (K)” value is 0.07 K.
The result for `CC(C)(C)CN` reads 0.06 K; that for `NC(=O)C1CCN(c2ncnc3ccsc23)CC1`, -0.08 K.
For `O=C(NOCCC(F)(F)F)c1ccc(-c2nnc(S)o2)cc1`, the “TSA(without NAD+) / Primary screening (TSA) / delta Tm (K)” value is -0.11 K.
With `NC(=O)COC(=O)c1ccc(OCC(=O)Nc2cccc(C(F)(F)F)c2)cc1`, the “TSA(without NAD+) / Primary screening (TSA) / delta Tm (K)” value is recorded as -0.02 K.
The same measure for `Cc1cc(-c2csc(NC(=O)c3ccc(NC(N)=O)cc3)n2)c(C)n1CCc1ccccc1`: 0.18 K; for `N#Cc1ccc(Cl)cc1NC(=O)COC(=O)c1nc(-c2ccccc2)n(-c2ccccc2)n1`: 0.09 K; for `CC(OC(=O)c1csc(-c2ccccc2)n1)C(=O)NCc1ccco1` (stereo not drawn): -0.14 K.
As to `O=C1C(NCc2cscn2)CCCN1c1cccnc1` (stereo not drawn), the “TSA(without NAD+) / Primary screening (TSA) / delta Tm (K)” value is given as -0.07 K.
The same measure for `Cc1ccc(Cn2nc(C)c(/C=C/C(=O)c3ccc(OC(C)C(=O)O)cc3)c2C)cc1` (stereo not drawn): -0.24 K.
Regarding `Cc1cc(C)c(OC(=O)CCc2c(C)nc3c(C(N)=O)cnn3c2C)c(C)c1`, the “TSA(without NAD+) / Primary screening (TSA) / delta Tm (K)” value is recorded as -0.05 K.
The same measure for `Cc1ccc(O)c(C(=O)N2CCC(=C3C(=O)Nc4ccccc43)CC2)c1`: 0.02 K; for `O=C1NC(c2sc3ccccc3c2Cl)Nc2ccccc21` (stereo not drawn): -0.01 K; for `Nc1nc(COC(=O)C2CCN(C(=O)NCc3ccco3)CC2)nc2ccccc12`: -0.13 K.
The result for `COc1ccc2nc(SCC(N)=O)[nH]c2c1` reads -0.27 K; that for `CCCc1nc(CSc2nccn2Cc2ccccn2)cs1`, 0.06 K; that for `Cc1c(C(=O)O)sc2nc(SCC(=O)N3CCCC3)[nH]c(=O)c12`, 0.17 K.
The result for `CCOCCN` reads -0.02 K.
As to `Cc1ccc(CNc2ncnc3ccsc23)cc1`, the “TSA(without NAD+) / Primary screening (TSA) / delta Tm (K)” value was -0.23 K.
The result for `CC(=O)N1N=C(c2ccc(O)cc2)CC1c1ccco1` (stereo not drawn) reads -0.01 K; that for `Cc1ccc(C23CC4CC(CC(C(=O)OCC(N)=O)(C4)C2)C3)cc1C`, -0.22 K.
`COC(=O)Cn1c(=O)c(C(=O)COC(=O)C2CC(O)CN2S(=O)(=O)c2ccc3ccccc3c2)c(N)n(Cc2ccccc2)c1=O` (stereo not drawn): the “TSA(without NAD+) / Primary screening (TSA) / delta Tm (K)” value is listed as -0.02 K.
